At least one compound was matched to its structure with a doubt left.
Key:
polyploid MM-BRAF cells [1] = experiment: Tumorigenicity and metastasis assay, polyploid MM-BRAF cells; assay type: in vivo, BALB/c athymic mice; conditions: embelin 8 mg/kg intraperitoneal every 48 h; FIG. 7A
[2] = system: parental MDA231MYC/Bcl2 cells; experiment: Cell death assay on parental breast cancer cells; assay type: cell-based, human; conditions: in vitro; FIG. 5C
[3] = system: polyploid MDA231MYC/Bcl2 cells; experiment: Cell death assay on polyploid breast cancer cells; assay type: cell-based, human; conditions: in vitro; FIG. 5C
MM-BRAF cells = experiment: Cell death / polyploidy in parental lung cancer cells; assay type: cell-based, mouse; conditions: in vitro; FIG. 7C
[4] = system: parental RPEMYC/BCL2 cells; experiment: Tumorigenicity assay, parental RPEMYC/BCL2 cells; assay type: in vivo, BALB/c athymic mice; conditions: embelin 8 mg/kg intraperitoneal every 48 h, initiated immediately after implantation; FIG. 5A
parental MMBRAF cells = experiment: Tumorigenicity and metastasis assay, parental MM-BRAF cells; assay type: in vivo, BALB/c athymic mice; conditions: embelin 8 mg/kg intraperitoneal every 48 h; FIG. 7B
[5] = system: polyploid RPEMYC/Bcl2 cells; experiment: Cell death assay (trypan blue exclusion) on VX680-induced polyploid RPEMYC/Bcl2 cells; assay type: cell-based, human; conditions: FIG. 4B
[6] = system: parental MDA231MYC/Bcl2 cells; experiment: Tumorigenicity assay, parental MDA231MYC/Bcl2 cells; assay type: in vivo, BALB/c athymic mice; conditions: embelin 8 mg/kg intraperitoneal every 48 h; FIG. 5B
[7] = system: polyploid MDA231MYC/Bcl2 cells; experiment: Tumorigenicity assay, VX680-induced polyploid MDA231MYC/Bcl2 cells; assay type: in vivo, BALB/c athymic mice; conditions: embelin 8 mg/kg intraperitoneal every 48 h; FIG. 5B
[8] = system: polyploid RPEMYC/BCL2 cells; experiment: Tumorigenicity assay, VX-680-induced polyploid RPEMYC/BCL2 cells; assay type: in vivo, BALB/c athymic mice; conditions: embelin 8 mg/kg intraperitoneal every 48 h, initiated immediately after implantation; FIG. 5A
polyploid MM-BRAF cells [9] = experiment: Cell death assay on polyploid lung cancer cells; assay type: cell-based, mouse; conditions: in vitro; FIG. 7C

CCCCCCCCCCCC1=C(O)C(=O)C=C(O)C1=O [embelin] was tested, and the metastasis (polyploid MM-BRAF cells [1]) was “completely blocked metastasis”, the “tumor formation at the injection site” value (polyploid MM-BRAF cells [1]) was “drastically reduced tumor formation” and the “killing of parental breast cancer cells” value [2] was “rather than their parental cells”. The “killing of polyploid breast cancer cells” value [3] was “selectively killing of polyploid MDA231MYC/Bcl2 cells”, the “killing of parental lung cancer cells” value (MM-BRAF cells) was “sparing their parental cells” and the tumorigenesis [4] was “largely unaffected”. The tumorigenesis and metastasis (parental MMBRAF cells) was “only modestly affected”, the “selective killing of polyploid versus diploid cells” value ([5]; commercially available embelin from Sigma) was “selectively killing” and the “killing of polyploid cells” value ([5]; within 24-hour of treatment) was “eliminated most of polyploid cells”. For the same compound, the tumorigenesis [6] was “not their parental”, the tumorigenesis [7] was “delayed” and the tumor formation [8] was “dramatically delayed tumor formation”. The “killing of polyploid lung cancer cells” value (polyploid MM-BRAF cells [9]) was “selectively killed polyploid MM-BRAF cells”.

Reference: patent US11104633B2, “Cancer treatment using compounds that selectively target polyploid cancer cells for disruption” (Chengdu Anticancer Bioscience, Ltd., priority 2017, dated 2021)
